# Test results published in the supplement of paper PMC10849652.
# The chains behind the UniProt entries cited, without tags or fusion partners. Where a name states a change or a piece, a line headed by the entry shows the natural chain unless it says otherwise.
# UniProt P0C024: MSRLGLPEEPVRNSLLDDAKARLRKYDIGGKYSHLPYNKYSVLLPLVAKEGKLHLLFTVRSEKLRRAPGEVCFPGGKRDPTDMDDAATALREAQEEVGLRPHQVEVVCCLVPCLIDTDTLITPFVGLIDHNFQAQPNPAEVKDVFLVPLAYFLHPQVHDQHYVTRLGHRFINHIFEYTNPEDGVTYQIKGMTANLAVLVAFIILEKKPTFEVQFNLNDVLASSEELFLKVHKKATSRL
# UniProt Q8WUM0: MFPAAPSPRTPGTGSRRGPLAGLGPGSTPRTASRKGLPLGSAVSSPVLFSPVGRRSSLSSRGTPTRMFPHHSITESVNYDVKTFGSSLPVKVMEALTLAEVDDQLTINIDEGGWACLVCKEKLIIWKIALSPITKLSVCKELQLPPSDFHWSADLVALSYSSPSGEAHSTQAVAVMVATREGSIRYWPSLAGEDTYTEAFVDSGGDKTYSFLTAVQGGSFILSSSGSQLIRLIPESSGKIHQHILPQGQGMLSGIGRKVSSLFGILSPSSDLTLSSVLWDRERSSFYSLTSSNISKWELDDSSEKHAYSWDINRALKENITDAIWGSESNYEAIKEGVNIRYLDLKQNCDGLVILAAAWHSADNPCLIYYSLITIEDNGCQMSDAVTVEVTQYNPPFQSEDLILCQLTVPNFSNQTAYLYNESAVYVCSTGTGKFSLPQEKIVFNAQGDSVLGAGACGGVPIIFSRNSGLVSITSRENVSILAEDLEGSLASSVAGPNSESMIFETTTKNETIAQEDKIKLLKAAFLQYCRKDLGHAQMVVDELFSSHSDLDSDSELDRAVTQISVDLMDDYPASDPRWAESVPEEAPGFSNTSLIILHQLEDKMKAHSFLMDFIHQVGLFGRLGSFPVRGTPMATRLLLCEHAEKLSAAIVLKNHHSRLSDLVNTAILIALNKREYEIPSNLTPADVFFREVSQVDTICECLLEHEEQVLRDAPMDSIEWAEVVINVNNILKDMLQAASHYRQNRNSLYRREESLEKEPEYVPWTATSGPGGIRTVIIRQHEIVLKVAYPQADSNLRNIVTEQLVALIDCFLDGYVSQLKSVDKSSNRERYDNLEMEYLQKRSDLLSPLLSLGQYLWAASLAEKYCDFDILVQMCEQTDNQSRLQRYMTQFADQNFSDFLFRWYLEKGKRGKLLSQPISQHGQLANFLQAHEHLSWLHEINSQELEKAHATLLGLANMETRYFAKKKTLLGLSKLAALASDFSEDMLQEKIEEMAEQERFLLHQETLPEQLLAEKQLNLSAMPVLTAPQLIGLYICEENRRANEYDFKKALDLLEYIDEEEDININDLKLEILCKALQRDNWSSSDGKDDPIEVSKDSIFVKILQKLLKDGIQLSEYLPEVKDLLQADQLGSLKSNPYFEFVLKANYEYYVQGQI
# UniProt Q8WVJ2: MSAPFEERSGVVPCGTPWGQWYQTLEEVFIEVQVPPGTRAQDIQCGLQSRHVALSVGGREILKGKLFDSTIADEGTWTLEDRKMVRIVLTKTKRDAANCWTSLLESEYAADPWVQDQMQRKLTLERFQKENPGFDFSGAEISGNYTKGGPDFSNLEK
# UniProt Q96RS6: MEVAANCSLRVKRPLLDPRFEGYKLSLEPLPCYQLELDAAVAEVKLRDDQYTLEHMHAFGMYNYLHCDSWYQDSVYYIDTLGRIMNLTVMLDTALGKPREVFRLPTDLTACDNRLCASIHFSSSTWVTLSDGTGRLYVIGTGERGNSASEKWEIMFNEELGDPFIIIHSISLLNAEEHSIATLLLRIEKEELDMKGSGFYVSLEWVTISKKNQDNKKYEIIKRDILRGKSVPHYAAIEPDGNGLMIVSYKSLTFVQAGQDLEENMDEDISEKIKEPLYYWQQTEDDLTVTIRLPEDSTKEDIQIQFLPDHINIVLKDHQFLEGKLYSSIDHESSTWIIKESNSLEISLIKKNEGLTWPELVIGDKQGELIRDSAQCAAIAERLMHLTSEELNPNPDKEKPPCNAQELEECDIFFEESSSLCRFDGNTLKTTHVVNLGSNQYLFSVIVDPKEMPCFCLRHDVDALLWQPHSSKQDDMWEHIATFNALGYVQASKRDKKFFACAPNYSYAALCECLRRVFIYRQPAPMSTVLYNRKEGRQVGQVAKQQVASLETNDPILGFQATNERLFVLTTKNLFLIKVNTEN
# UniProt Q9ULX3: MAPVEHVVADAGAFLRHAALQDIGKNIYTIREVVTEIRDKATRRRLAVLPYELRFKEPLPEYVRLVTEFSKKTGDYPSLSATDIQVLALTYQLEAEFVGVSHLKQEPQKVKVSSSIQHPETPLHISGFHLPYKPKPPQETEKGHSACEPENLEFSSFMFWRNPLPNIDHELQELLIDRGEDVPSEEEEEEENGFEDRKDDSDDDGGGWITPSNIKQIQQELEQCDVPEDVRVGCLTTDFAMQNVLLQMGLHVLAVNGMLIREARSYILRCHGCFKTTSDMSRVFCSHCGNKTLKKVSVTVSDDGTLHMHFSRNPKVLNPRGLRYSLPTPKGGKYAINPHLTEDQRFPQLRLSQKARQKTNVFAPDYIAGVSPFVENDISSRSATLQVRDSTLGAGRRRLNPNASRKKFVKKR
# UniProt O00567: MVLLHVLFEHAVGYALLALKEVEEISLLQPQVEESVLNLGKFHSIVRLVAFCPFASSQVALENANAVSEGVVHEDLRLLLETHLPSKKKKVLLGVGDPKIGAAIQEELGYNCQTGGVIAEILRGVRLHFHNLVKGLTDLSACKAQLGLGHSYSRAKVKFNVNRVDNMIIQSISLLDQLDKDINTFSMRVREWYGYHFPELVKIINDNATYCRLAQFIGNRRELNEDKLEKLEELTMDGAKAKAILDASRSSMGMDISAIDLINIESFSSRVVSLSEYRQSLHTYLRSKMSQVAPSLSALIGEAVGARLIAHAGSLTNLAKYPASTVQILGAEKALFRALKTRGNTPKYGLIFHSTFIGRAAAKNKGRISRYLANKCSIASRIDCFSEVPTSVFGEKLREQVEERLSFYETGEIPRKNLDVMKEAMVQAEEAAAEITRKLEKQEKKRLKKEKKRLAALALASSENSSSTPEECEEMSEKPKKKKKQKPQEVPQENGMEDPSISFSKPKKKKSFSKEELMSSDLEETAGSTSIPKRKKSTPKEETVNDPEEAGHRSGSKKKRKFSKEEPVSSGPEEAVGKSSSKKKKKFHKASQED
# UniProt Q9Y2X3: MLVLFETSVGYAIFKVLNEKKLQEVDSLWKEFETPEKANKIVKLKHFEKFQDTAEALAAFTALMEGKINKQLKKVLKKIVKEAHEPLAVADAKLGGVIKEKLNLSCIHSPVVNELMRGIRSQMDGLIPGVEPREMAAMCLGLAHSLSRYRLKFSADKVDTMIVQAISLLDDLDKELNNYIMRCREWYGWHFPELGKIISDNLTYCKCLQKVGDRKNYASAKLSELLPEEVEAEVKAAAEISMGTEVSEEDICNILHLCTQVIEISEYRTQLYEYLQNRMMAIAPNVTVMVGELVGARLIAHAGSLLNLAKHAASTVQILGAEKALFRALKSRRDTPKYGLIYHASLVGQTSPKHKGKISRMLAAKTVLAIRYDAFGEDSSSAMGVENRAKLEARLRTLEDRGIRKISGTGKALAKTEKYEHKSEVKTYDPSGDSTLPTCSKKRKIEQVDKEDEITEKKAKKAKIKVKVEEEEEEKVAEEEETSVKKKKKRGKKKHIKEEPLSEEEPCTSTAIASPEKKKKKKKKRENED
# UniProt Q9Y5B8, whole entry, looked up: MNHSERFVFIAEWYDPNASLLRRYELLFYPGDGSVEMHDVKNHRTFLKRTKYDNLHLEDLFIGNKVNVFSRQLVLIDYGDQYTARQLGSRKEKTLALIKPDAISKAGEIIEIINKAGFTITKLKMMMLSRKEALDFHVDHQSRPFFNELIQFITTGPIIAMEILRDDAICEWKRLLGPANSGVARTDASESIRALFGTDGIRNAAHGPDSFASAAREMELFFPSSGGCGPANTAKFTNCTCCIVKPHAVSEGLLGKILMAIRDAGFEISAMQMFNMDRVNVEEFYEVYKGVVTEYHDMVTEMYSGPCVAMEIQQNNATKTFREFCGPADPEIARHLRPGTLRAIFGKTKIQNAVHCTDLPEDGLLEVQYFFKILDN
# UniProt Q96P11: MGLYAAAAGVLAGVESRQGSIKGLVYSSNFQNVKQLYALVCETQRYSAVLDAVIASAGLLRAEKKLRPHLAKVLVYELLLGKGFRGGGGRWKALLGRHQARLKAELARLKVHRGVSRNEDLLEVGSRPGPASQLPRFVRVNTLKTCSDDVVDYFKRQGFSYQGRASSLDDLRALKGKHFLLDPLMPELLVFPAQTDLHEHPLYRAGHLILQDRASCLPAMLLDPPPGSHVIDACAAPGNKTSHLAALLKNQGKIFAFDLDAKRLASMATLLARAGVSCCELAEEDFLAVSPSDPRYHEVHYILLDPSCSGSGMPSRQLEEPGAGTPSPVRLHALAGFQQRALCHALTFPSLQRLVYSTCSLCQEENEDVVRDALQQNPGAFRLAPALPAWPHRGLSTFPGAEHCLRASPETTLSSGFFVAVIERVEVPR
# UniProt Q14978: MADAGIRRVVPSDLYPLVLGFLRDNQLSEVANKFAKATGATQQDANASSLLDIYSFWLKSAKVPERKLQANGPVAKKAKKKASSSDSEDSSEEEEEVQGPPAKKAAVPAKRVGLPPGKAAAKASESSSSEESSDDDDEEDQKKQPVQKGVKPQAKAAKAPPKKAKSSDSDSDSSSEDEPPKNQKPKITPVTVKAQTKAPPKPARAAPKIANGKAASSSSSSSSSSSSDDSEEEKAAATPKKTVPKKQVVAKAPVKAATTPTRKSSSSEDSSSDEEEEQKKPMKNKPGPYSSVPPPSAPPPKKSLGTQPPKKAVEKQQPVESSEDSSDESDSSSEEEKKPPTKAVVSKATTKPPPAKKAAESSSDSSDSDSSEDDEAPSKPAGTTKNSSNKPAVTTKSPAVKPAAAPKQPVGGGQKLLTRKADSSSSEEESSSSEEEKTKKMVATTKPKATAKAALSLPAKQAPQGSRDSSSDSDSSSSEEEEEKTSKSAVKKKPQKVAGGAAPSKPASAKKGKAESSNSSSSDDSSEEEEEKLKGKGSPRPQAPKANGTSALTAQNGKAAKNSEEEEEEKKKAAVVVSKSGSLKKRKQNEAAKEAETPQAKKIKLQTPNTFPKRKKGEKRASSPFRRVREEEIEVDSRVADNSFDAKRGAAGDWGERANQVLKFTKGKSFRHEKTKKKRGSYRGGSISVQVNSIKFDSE
# UniProt Q15738: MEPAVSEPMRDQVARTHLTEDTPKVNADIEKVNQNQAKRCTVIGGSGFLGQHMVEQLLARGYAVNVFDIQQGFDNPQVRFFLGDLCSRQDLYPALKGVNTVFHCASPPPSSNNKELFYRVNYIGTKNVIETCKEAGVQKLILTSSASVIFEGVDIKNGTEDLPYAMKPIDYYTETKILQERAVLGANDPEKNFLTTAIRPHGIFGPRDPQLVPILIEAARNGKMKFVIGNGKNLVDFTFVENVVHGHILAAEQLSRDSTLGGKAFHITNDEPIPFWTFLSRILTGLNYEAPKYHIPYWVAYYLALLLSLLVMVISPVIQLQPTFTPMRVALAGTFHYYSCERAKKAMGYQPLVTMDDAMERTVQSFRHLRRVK
# UniProt Q96MG7: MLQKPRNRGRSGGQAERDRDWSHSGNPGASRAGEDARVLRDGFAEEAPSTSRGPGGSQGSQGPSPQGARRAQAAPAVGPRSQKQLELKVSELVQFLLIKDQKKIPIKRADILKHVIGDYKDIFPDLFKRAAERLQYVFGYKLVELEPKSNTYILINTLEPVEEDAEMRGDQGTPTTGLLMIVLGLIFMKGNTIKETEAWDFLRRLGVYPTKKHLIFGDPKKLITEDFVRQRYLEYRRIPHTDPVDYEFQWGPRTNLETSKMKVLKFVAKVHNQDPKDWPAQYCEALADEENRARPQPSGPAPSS
# UniProt P49757: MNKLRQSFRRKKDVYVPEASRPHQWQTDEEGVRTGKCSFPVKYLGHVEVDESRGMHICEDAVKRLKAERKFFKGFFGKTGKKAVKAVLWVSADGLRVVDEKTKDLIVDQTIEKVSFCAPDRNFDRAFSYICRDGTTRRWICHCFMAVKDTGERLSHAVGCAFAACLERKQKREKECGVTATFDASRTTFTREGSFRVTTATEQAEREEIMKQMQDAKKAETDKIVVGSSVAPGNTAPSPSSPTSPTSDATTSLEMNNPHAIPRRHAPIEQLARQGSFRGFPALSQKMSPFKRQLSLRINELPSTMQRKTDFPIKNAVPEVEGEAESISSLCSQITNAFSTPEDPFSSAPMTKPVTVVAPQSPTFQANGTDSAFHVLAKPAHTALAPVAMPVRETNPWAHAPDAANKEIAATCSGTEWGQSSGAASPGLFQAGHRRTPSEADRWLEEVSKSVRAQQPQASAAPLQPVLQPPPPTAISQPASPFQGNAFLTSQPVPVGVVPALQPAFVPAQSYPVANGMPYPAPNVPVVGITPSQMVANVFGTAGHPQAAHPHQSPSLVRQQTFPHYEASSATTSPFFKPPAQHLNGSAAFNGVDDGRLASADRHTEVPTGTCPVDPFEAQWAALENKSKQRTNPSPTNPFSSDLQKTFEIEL
# This is one part of the list.
# Compound: CS(=O)(=O)CCNCc1ccc(-c2ccc3ncnc(Nc4ccc(OCc5cccc(F)c5)c(Cl)c4)c3c2)o1 [lapatinib]
# Assay: log2 fold change, soluble protein after heating vs DMSO (PISA); higher = thermal stabilisation; K562 lysate, 10 uM; active = over 0.2 and 3.5 SD of the protein, either way, in both replicates (recomputed)
# In short: (§1)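 Values give the log-two fold change in thermal stability against solvent controls, from duplicates. Crude K562 extract at 1 mg/mL protein, made by dounce homogenisation in PBS pH 7.4 with 1 mM MgCl2, was treated with 10 μM compound for 30 min. After 3 min heating across 48°C-58°C, aliquots were pooled, adjusted to 0.5% NP-40 at 4°C and centrifuged at 21,000xg for 90 min. The supernatant was measured by TMTpro 16plex LC-MS/MS with channel sums equalised.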
row,Target,log2 fold change
1,NPM1 (UniProt P06748),inactive: -0.017
2,NUDT7 (UniProt P0C024),inactive: -0.038
3,NUP133 (UniProt Q8WUM0),inactive: -0.007
4,NT5DC2 isoform 2 (UniProt Q9H857),inactive: -0.036
5,NRAS (UniProt P01111),inactive: 0.008
6,NUMA1 (UniProt Q14980),inactive: -0.012
7,NUDCD2 (UniProt Q8WVJ2),inactive: -0.012
8,NUDCD1 (UniProt Q96RS6),inactive: -0.006
9,NOB1 (UniProt Q9ULX3),inactive: 0.027

# Compound: CS(=O)(=O)N1CCN(Cc2cc3nc(-c4cccc5[nH]ncc45)nc(N4CCOCC4)c3s2)CC1 [pictilisib]
# Assay: as above
# In short: as §1
row,Target,log2 fold change
1,NMNAT1 (UniProt Q9HAN9),inactive: 0.003
2,NOP56 (UniProt O00567),inactive: -0.01
3,NOP58 (UniProt Q9Y2X3),inactive: -0.018
4,NSMAF (UniProt Q92636),inactive: -0.053
5,NME7 (UniProt Q9Y5B8),inactive: -0.021
6,NSUN5 isoform 2 (UniProt Q96P11),inactive: 0.012
7,NOLC1 isoform 2 (UniProt Q14978),inactive: -0.04
8,NOP14 (UniProt P78316),inactive: 0.016
9,NSDHL (UniProt Q15738),inactive: -0.02
10,NUDT4 (UniProt Q9NZJ9),inactive: -0.055
11,NSMCE3 (UniProt Q96MG7),inactive: 0
12,NSUN6 (UniProt Q8TEA1),inactive: -0.034
13,NUDT16 (UniProt Q96DE0),inactive: -0.042
14,NUMB (UniProt P49757),inactive: 0.023

# Some values from above:
# Entry for NSUN6 (UniProt Q8TEA1) under log2 fold change: inactive: -0.034
# Entry for NOP14 (UniProt P78316) under log2 fold change: inactive: 0.016
